PubChem BioAssay AID504764, Drosophila RNAi Screening Center, 2011
Test: 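Knock-downs that raise or lower a Notch target reporter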 (primary screen). Cells: Drosophila Kc167 cells. Knock-down reagent: long dsRNA against Drosophila genes. Time to read-out: about 5 days (4 days dsRNA, then 24 h after transfection). Treatment: transfection of constitutively active membrane-tethered Notch lacking the extracellular domain, read 24 h later. Read-out: 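Firefly luciferase from an E(spl)m3 reporter with active Notch, plus control-promoter and uninduced reporter wells for normalisation; unnormalised counts, duplicate wells a and b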. Direction: induced reporter light, run 1, well a and induced reporter light, run 1, well b: higher = more light from the Notch target reporter with active Notch; control promoter light, run 1, well a and control promoter light, run 1, well b: higher = more light from the viral control promoter (cell number, transfection, viability); uninduced reporter light, run 1, well a: higher = more light from the Notch target reporter without active Notch. Active means: 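Hit if the duplicate-averaged log2 ratio of induced to control-promoter light gives a plate-wise z beyond ±2, or induced to uninduced beyond ±1.8; weak-control or discordant-duplicate wells dropped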. Meaning of the calls: active = modifier hit (raised or lowered Notch signal); inactive = not a hit.
The deposit covers about 22,000 reagents; shown is an unselected part of those with a known target gene and a result. Of all reagents, 403 (1.9%) were called active. 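Unnormalised raw counts per well; ratio z-scores behind the hit calls and whether each hit raises or lowers signal are not deposited.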 A number with no mark means an inactive call. The numbers tell different reagents against one gene apart. A plus sign joins genes that one reagent is predicted to hit. The record does not give: the amount of reagent.

no.	Gene	dsRNA no.	induced reporter light, run 1, well a	induced reporter light, run 1, well b	control promoter light, run 1, well a	control promoter light, run 1, well b	uninduced reporter light, run 1, well a
1	Ssrp	1	1.50e5 (active)	1.50e5	1.06e5	1.26e5	17945
2	AhcyL1	1	1.28e5	1.12e5	1.53e5	1.31e5	5890
3	Rnf146	1	1.03e5	1.24e5	1.23e5	1.25e5	8692
4	CG14551	1	1.25e5	1.22e5	1.78e5	1.58e5	10585
5	Lkr	1	3.73e5	3.04e5	4.28e5	4.30e5	20985
6	CG13870	1	45190	39840	61175	90420	4800
7	CG7182	1	99680	1.01e5	78570	43810	12195
8	Ret	1	1.89e5	1.84e5	1.51e5	1.49e5	14300
9	Ret	2	52725	42410	47700	60000	2460
10	CG11052	1	47265	55660	66495	46830	4255
11	CG15406	1	85685	84770	83895	75995	4945
12	Ent3	1	1.31e5 (active)	1.27e5	1.17e5	88225	10755
13	CG17350	1	31735	29575	31905	35695	2655
14	ctp	1	2.88e5	2.44e5	3.43e5	3.29e5	20650
15	Src42A	1	1.64e5	1.67e5	1.40e5	1.30e5	12895
16	CG34256	1	2.28e5	1.94e5	3.46e5	2.80e5	17515
17	Or63a	1	1.16e5	1.09e5	1.76e5	1.70e5	7395
18	CG17327	1	3.53e5	3.63e5	3.49e5	3.75e5	25055
19	RpL36A	1	78085	92600	51175	61760	10955
20	CG14668	1	97260	1.12e5	79805	78115	4820
21	key	1	1.48e5	2.01e5	1.18e5	1.26e5	11755
22	CG11406	1	1.34e5	1.55e5	1.89e5	2.15e5	8405
23	CG11406	2	1.98e5	2.12e5	2.06e5	1.92e5	16295
24	PheRS-m	1	1.43e5	1.70e5	1.78e5	1.87e5	15125
25	CG43894	1	2.14e5	2.01e5	1.54e5	1.52e5	8850
26	Fum3	1	1.33e5	1.12e5	2.27e5	1.44e5	9080
27	Ets97D	1	1.34e5	1.17e5	1.80e5	1.89e5	10515
28	CG31493	1	1.44e5	1.24e5	81375	88945	10042
29	Mms19	1	1.35e5	1.20e5	93385	92555	9140
30	brv3	1	95080	98250	1.28e5	1.58e5	7175
31	CG42260	1	86330	68280	66475	62755	8420
32	CG42260	2	2.05e5	1.78e5	1.89e5	1.95e5	12120
33	CG42260	3	1.49e5	1.42e5	1.73e5	1.67e5	10270
34	CG5921	1	80185	88505	89815	80020	6530
35	CG5921	2	35165	37355	41895	41165	2350
36	svp	1	1.40e5	1.26e5	1.34e5	1.20e5	9095
37	svp	2	65085	64330	73085	46380	4260
38	svp	3	1.33e5	1.38e5	1.79e5	1.08e5	6985
39	NdufV3	1	93850	92080	1.25e5	1.73e5	7482
40	CG30034 (retired record)	1	2.73e5	2.85e5	3.25e5	4.08e5	25435
41	Cpr	1	74805	61675	60575	56275	5005
42	Acat2	1	90210	99105	1.18e5	1.15e5	4605
43	CG10435	1	92215	89470	64040	52380	8225
44	CG14085	1	1.14e5	87090	93415	95205	8830
45	lt	1	55455	53045	57600	43210	3055
46	betaTub60D	1	2.07e5	1.98e5	1.98e5	1.72e5	13555
47	bbx + waw	1	1.15e5	1.02e5	1.20e5	64710	9505
48	bbx + waw	2	1.13e5	1.18e5	1.12e5	1.64e5	11725
49	Sec23	1	1.67e5	1.74e5	1.08e5	1.02e5	12515
50	CG5021	1	2.08e5	2.56e5	2.29e5	2.77e5	10295

Called active (from the list above):
Gene	dsRNA no.	induced reporter light, run 1, well a	induced reporter light, run 1, well b	control promoter light, run 1, well a	control promoter light, run 1, well b	uninduced reporter light, run 1, well a
Ssrp	1	1.50e5 (active)	1.50e5	1.06e5	1.26e5	17945
Ent3	1	1.31e5 (active)	1.27e5	1.17e5	88225	10755
